Laboratory results reported in PMC10787177.
These are yes or no findings as the source states them, for the method shown. In cells and extracts the contact can be indirect. Binding calls can cover weak binding; strength is not graded here. Sequences can lack the tags named with a protein. Blank lines part the entries; values can stand above or below the molecule they belong to.

What was measured:
[1] = biological target: T1, PHB1-GFP (human) (UniProt P35232); experiment: co-IP; GFP-trap Sepharose beads; HEK293 lysates co-expressing the GFP-tagged refProt or GFP with the Flag-tagged altProt; immunoblot
T1 sequence: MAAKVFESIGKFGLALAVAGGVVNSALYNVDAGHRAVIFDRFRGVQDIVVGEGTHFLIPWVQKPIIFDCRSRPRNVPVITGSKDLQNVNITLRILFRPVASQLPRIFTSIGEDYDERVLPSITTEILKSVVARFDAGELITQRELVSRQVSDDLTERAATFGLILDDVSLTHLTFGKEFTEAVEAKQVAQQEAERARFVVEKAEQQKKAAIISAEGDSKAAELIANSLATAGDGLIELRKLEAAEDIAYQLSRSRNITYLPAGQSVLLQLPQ

[2] = biological target: IP_762813-Flag (human); experiment: co-IP; Anti-FLAG M2 magnetic beads; HEK293 lysates co-expressing the GFP-tagged refProt and the Flag-tagged altProt or empty vector; 150 mM NaCl, 50 mM Tris pH 7.5, 1% Triton; overnight at 4 °C; for PHB1-GFP and RPL18-GFP stringent wash with 250 mM NaCl and FLAG peptide, elution with FLAG peptide; immunoblot

binding [1]: binds
Molecule: IP_762813-Flag (human)

binding [2]: binds
B1: PHB1-GFP (protein, UniProt P35232-1 1-272)
chain: T1 sequence
